The list shows a part of the results.
Compound: c1cn2cc(-c3ccc4cn[nH]c4c3)nc(Nc3ccc(N4CCOCC4)cc3)c2n1 [entospletinib]
Assay: log2 fold change, soluble protein after heating vs DMSO (PISA); higher = thermal stabilisation; K562 cells, 10 uM, 30 min; active = over 0.2 and 3.5 SD of the protein, either way, in both replicates (recomputed)
How it was run: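 Values are thermal stability changes relative to control samples and are taken from duplicates. They are stated as log2 fold changes. Before quantification by TMTpro 16plex LC-MS/MS with equalised channel sums, K562 cells at 2×10^6 cells/mL were treated with 10 μM compound for 30 min, heated in aliquots for 3 min across 48°C-58°C, pooled, extracted in PBS with 0.5% NP-40 at 4°C, and centrifuged at 21,000xg for 90 min to give the soluble supernatant.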

By UniProt entry, the sequences of proteins in these tests, tags left out. Where a name states a change or a piece, a line headed by the entry shows the natural chain unless it says otherwise.
UniProt O60524: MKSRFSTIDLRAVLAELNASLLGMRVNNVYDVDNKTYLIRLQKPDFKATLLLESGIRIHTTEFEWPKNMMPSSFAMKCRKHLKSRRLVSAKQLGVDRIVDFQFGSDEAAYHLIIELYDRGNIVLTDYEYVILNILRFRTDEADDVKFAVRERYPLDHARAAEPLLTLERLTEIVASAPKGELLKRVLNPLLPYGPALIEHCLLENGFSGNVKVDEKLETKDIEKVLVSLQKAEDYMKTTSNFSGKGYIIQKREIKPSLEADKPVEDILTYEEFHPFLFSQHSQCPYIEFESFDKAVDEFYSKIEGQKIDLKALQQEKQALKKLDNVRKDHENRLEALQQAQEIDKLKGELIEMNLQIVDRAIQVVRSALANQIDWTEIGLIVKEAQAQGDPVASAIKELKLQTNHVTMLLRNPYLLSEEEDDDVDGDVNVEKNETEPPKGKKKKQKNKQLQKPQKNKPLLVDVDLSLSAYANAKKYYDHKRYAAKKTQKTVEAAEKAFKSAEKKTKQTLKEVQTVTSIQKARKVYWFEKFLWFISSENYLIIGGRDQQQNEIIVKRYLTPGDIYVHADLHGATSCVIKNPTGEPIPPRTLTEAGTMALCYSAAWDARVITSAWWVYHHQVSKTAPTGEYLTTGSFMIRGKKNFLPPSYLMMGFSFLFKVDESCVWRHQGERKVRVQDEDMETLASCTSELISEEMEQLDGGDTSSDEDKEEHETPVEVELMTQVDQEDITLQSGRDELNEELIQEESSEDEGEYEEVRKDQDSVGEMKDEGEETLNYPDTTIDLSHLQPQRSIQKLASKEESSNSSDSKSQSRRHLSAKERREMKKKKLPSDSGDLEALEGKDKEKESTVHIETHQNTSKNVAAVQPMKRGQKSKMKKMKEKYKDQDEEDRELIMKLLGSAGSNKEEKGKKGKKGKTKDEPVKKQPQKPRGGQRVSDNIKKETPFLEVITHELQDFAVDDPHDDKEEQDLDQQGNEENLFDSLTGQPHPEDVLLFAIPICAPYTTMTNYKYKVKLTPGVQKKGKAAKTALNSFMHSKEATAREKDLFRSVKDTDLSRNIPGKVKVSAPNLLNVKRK
UniProt Q96TA1: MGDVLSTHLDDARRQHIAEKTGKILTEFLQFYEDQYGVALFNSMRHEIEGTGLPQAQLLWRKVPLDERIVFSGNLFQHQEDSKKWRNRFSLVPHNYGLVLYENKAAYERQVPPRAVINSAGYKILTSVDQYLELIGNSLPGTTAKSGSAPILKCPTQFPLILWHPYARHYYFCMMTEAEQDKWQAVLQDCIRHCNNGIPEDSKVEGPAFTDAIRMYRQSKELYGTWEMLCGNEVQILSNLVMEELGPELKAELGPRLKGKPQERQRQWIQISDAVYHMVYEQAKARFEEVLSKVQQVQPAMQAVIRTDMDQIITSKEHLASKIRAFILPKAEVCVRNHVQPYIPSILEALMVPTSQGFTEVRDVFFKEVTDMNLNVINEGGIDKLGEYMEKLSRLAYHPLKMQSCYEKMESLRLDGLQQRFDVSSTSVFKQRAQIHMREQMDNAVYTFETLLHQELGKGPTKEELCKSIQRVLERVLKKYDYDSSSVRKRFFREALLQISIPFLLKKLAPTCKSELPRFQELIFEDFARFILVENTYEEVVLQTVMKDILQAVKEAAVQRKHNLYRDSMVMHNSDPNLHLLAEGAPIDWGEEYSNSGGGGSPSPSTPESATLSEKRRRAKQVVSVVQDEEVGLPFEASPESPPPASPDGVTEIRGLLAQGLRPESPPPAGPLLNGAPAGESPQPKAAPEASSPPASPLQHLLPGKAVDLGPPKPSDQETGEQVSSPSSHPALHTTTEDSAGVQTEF
UniProt Q13232: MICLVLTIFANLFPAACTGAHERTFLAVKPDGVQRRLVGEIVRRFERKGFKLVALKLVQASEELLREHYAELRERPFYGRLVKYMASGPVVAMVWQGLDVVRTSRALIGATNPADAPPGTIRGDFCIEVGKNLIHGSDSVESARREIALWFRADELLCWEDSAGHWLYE
UniProt Q9BXD5: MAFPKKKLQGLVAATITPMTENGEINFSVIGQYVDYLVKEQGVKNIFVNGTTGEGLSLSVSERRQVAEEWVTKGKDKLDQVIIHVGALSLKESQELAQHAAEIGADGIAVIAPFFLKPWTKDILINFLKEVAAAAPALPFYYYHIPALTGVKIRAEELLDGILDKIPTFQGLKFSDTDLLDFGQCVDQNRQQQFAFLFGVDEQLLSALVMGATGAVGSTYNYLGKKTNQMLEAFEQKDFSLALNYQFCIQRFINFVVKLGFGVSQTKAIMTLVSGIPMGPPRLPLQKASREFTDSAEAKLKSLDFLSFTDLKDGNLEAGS
UniProt Q9BPW8: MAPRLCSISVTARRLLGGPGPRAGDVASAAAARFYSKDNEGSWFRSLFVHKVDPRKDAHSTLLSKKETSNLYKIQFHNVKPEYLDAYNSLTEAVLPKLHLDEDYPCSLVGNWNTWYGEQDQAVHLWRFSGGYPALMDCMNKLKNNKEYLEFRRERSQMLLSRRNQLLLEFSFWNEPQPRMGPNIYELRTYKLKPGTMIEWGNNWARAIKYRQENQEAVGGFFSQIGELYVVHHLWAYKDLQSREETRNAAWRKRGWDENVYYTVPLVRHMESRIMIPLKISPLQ
UniProt O60936: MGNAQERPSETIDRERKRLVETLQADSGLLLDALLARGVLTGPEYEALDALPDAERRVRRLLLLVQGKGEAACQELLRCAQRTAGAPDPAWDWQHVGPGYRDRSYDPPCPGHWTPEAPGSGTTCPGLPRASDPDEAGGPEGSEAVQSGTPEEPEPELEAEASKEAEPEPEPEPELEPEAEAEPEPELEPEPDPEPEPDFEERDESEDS
UniProt P23511, whole entry, looked up: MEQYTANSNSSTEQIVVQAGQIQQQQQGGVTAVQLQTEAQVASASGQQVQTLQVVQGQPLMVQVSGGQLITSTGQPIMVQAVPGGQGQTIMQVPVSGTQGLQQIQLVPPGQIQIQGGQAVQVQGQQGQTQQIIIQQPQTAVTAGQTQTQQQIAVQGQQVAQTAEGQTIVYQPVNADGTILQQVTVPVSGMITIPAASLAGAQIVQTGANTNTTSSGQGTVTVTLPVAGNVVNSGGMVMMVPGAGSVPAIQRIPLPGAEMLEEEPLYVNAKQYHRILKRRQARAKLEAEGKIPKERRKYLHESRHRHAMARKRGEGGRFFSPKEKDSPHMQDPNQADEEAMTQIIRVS
UniProt Q8IXM6: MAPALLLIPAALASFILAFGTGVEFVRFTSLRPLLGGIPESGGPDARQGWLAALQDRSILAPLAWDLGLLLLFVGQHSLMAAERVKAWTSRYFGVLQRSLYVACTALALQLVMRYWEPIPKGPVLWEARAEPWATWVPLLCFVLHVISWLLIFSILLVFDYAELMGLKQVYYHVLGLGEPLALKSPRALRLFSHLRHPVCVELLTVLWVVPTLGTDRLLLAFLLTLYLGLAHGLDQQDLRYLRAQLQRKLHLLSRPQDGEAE
UniProt Q96JN8: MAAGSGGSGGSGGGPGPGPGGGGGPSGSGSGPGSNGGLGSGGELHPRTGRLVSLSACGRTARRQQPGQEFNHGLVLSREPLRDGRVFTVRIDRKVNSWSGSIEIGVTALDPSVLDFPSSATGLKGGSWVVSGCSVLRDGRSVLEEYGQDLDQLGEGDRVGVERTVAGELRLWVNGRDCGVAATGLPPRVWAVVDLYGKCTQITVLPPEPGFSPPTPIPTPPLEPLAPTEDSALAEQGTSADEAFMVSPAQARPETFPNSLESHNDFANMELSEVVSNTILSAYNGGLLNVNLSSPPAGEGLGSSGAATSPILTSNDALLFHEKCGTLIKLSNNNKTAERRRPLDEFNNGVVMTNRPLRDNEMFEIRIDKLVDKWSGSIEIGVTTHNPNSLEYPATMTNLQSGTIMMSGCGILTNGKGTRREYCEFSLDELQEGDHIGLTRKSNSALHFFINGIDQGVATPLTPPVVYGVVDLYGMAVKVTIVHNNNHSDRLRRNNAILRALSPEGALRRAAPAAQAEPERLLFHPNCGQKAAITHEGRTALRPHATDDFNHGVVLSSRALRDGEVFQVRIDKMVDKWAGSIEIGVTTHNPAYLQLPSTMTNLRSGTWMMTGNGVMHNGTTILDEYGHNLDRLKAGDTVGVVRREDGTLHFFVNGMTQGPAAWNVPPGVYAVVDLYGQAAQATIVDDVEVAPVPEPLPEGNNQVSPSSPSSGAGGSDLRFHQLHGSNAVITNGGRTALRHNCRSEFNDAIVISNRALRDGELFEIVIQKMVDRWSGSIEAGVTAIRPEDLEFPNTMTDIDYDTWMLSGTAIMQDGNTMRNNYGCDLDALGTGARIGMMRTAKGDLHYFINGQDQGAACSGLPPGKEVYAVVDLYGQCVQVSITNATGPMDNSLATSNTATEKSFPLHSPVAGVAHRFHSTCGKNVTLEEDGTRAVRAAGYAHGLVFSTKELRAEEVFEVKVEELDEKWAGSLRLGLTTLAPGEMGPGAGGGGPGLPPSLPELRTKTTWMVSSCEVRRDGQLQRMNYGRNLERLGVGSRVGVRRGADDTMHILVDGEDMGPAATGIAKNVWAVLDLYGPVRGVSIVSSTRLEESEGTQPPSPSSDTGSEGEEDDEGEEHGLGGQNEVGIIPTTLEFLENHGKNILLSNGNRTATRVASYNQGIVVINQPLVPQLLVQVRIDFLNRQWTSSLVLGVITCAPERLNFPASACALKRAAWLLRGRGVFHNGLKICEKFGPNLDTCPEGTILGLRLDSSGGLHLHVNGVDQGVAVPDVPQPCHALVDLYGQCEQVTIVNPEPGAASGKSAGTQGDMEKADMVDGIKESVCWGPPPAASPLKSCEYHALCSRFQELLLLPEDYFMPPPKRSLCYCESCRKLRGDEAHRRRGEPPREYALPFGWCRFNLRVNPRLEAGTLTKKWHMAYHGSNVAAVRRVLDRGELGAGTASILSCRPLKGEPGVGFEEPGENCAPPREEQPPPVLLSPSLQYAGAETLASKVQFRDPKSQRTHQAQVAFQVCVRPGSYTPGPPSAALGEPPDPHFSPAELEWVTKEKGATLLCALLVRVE
UniProt Q9UHY1: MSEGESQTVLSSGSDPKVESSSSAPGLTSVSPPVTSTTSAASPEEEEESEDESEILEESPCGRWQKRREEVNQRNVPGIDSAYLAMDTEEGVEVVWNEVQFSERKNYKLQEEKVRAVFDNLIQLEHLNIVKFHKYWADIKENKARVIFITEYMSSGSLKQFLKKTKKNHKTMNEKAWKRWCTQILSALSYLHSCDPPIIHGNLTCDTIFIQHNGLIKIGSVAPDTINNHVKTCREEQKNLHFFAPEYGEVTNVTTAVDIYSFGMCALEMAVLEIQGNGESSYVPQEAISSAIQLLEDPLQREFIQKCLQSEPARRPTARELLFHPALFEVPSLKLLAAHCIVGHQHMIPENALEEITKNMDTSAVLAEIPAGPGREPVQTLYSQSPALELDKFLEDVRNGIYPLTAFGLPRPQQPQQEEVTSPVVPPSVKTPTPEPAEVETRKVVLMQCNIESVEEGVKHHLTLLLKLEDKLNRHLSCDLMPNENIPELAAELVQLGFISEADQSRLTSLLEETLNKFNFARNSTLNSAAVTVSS
UniProt O75414: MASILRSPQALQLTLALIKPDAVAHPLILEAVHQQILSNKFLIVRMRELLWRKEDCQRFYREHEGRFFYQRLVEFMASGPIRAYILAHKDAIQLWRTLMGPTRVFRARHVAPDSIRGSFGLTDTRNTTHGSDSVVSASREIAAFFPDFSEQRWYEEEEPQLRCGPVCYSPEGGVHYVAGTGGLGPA
UniProt Q9Y3C1: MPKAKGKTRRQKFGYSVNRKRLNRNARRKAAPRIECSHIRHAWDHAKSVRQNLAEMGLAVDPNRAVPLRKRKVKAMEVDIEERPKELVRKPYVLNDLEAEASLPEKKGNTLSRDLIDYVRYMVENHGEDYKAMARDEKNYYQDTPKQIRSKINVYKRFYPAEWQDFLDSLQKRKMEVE
UniProt Q9UMS0: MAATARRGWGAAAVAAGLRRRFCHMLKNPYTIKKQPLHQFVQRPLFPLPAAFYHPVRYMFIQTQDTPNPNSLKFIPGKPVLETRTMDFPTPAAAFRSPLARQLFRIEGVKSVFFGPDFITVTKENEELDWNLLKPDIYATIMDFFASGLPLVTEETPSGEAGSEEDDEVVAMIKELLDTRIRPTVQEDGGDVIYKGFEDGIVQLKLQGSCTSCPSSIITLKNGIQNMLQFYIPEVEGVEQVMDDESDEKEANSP

Target | log2 fold change
NFATC1 (UniProt O95644) | inactive: -0.088
NEMF (UniProt O60524) | inactive: 0.045
NIBAN2 (UniProt Q96TA1) | inactive: -0.015
NME3 (UniProt Q13232) | inactive: 0.004
NPL (UniProt Q9BXD5) | inactive: -0.052
NIPSNAP1 (UniProt Q9BPW8) | inactive: 0.063
NRAS (UniProt P01111) | inactive: 0.006
NOL3 isoform 3 (UniProt O60936) | inactive: 0.004
NFYA (UniProt P23511) | inactive: -0.036
NRM (UniProt Q8IXM6) | inactive: -0.019
NEURL4 (UniProt Q96JN8) | inactive: 0.455
NRBP1 (UniProt Q9UHY1) | inactive: 0.004
NME6 (UniProt O75414) | inactive: -0.005
NOP16 (UniProt Q9Y3C1) | inactive: -0.119
NFU1 (UniProt Q9UMS0) | inactive: -0.005

Part of the list above, with tabs.
Target	log2 fold change
NOL3 isoform 3 (UniProt O60936)	inactive: 0.004
NFYA (UniProt P23511)	inactive: -0.036
